# Measured values taken from patent publication US20170058314A1, “NOVEL METHODOLOGY FOR IDENTIFYING ANTI-PERSISTER ACTIVITY AND ANTIMICROBIAL SUSCEPTIBILITY FOR BORRELIA BURGDORFERI AND OTHER BACTERIA” (priority 2014, published 2017).
# Experiments:
# [1] = system: stationary phase B. burgdorferi persisters (strain B31); assay: NCI compound library screen, SYBR Green I/PI assay (plate reader); details: 50 μM, seven day old stationary phase culture, 7 days
# [2] = system: stationary phase B. burgdorferi persisters (strain B31); assay: NCI compound library rescreen, epifluorescence microscope counting
smiles,measurement,setting,value
"CCN(CC)c1ccc2cc3ccc(=[N+](CC)CC)cc-3oc2c1.[Cl-] [NSC44690, Pyronin B]",Residual viable cells (SYBR Green I/PI assay),[1],0%
same,Residual viable cells (epifluorescence microscope counting),"[2]; 50 μM, seven day old stationary phase culture, 7 days",19%
same,Activity against persisters (residual viable cell percentage),[2]; stationary phase persisters,19%
